Data from PMC7249644.
Results are given in words; binding and its absence hold for the method and conditions named. In cells and extracts the contact can be indirect. Binding calls can cover weak binding; strength is not graded here. Where a sequence is shown, tags or fusion partners need not be part of it.

T1: OsSHMT fused with a YFP fragment for BiFC (rice (Oryza sativa subsp. indica, Dular)) (UniProt Q10D68)
T1 sequence: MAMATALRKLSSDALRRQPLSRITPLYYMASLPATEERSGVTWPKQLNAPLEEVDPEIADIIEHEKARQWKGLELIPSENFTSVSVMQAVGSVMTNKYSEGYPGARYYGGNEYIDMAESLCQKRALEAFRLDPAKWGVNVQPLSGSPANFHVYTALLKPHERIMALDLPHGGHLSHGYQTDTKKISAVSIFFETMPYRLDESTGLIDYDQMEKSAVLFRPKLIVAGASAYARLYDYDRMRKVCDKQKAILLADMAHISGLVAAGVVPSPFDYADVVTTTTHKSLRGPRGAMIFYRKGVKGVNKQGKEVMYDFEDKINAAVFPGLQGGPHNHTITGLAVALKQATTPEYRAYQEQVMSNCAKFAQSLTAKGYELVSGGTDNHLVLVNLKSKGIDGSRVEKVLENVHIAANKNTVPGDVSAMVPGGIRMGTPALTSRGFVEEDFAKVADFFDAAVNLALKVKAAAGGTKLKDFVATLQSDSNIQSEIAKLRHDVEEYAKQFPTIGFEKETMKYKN

B1: OsNIP2;1 (Lsi1-encoded nodulin 26-like intrinsic protein) fused with the N-terminal domain of YFP (protein, UniProt Q6Z2T3 1-298)
chain: MASNNSRTNSRANYSNEIHDLSTVQNGTMPTMYYGEKAIADFFPPHLLKKVVSEVVATFLLVFMTCGAAGISGSDLSRISQLGQSIAGGLIVTVMIYAVGHISGAHMNPAVTLAFAVFRHFPWIQVPFYWAAQFTGAICASFVLKAVIHPVDVIGTTTPVGPHWHSLVVEVIVTFNMMFVTLAVATDTRAVGELAGLAVGSAVCITSIFAGAISGGSMNPARTLGPALASNKFDGLWIYFLGPVMGTLSGAWTYTFIRFEDTPKEGSSQKLSSFKLRRLRSQQSIAADDVDEMENIQV

What was measured:
[1] = molecular target: T1, OsSHMT fused with a YFP fragment for BiFC (rice (Oryza sativa subsp. indica, Dular)); experiment: split reporter; BiFC: YFPn and YFPc fusions co-expressed by transient transformation in leaves of Nicotiana benthamiana; YFP fluorescence by laser confocal microscopy, 488-nm excitation
[2] = molecular target: ATP synthase subunit β from rice, fused with a YFP fragment for BiFC (rice (Oryza sativa subsp. indica, Dular)); experiment: as above

| Molecule | binding [1] | binding [2] |
| --- | --- | --- |
| ATP synthase subunit α from rice, fused with a YFP fragment for BiFC | binds |  |
| ATP synthase subunit β from rice, fused with a YFP fragment for BiFC | binds |  |
| ascorbate peroxidase (APX) from rice, fused with a YFP fragment for BiFC (enzyme) | binds |  |
| B1 |  | binds |
